Data as given in PubChem BioAssay AID1259254 (NCATS, 2017).

- Assay: 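Finding genes that stop cells copying their DNA twice in one cycle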 (primary screen)
- System: human HCT116 colorectal cancer cells
- Knock-down reagent: single siRNA against human genes
- Duration: 3 days
- Measured: 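Nuclei stained with Hoechst and imaged; cell-cycle phase assigned by DNA content; G2 share scaled per plate, non-targeting siRNA 0%, GMNN siRNA 100%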
- Scale: G2 robust z-score: higher = more G2 cells, more excess DNA replication
- Active means: 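An siRNA counts as active if its G2 robust z-score lies at least 5 MADs above the screen median; here such calls match roughly 38% of GMNN control or more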
Shown is a random part of about 59,000 reagents. In the full data, about 1,550 (2.6%) are marked active. 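G2 share is only a proxy for re-replication; each gene was hit by three separate siRNAs, and active genes were retested.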 A number with no mark means an inactive call. The numbers tell different reagents against one gene apart. Not all columns of the deposit are shown. Not given: the amount of reagent.

GATA3 (GeneID 2625) #1
- G2 robust z-score: -0.193

GATA3 (GeneID 2625) #2
- G2 robust z-score: 1.62

GATA3 (GeneID 2625) #3
- G2 robust z-score: -0.294

DCAF12L1 (GeneID 139170) #1
- G2 robust z-score: 0.707

DCAF12L1 (GeneID 139170) #2
- G2 robust z-score: -0.183

DCAF12L1 (GeneID 139170) #3
- G2 robust z-score: 0.132

ATP2C1 (GeneID 27032) #1
- G2 robust z-score: 0.621

ATP2C1 (GeneID 27032) #2
- G2 robust z-score: 1.78

ATP2C1 (GeneID 27032) #3
- G2 robust z-score: 0.598

RAB17 (GeneID 64284) #1
- G2 robust z-score: -1.21

RAB17 (GeneID 64284) #2
- G2 robust z-score: -1.43

RAB17 (GeneID 64284) #3
- G2 robust z-score: -0.207

2 of these entries, set out differently:
gene,reagent no.,G2 robust z-score
ATP2C1 (GeneID 27032),2,1.78
ATP2C1 (GeneID 27032),3,0.598
